Test results published in patent US20230126893A1, “[(1,4,5-TRISUBSTITUTED-1H-PYRAZOL-3-YL)SULFANYL]ACETIC ACID DERIVATIVES, SALTS THEREOF, AND USE THEREOF AS ACTIVE HERBICIDAL INGREDIENTS” (BAYER AKTIENGESELLSCHAFT, priority 2020, published 2023).
Some of these results come from one statement about several compounds together. Some compounds share one range, which may span the group rather than tell each member.

Legend:
Type in all cases: in vivo
Alopecurus myosuroides [1] = assay: Post-emergence herbicidal effect against ALOMY; conditions: 1280 g/ha, visual score after about 3 weeks, 100% = plants have died, 0% = like control plants
Experimental: (§1) [table] 2. Post-emergence herbicidal effect and crop plant compatibility Seeds of monocotyledonous and dicotyledonous weed and crop plants are laid out in sandy loam soil in wood-fibre pots, covered with soil and cultivated in a greenhouse under good growth conditions. 2 to 3 weeks after sowing, the test plants are treated at the one-leaf stage. The compounds of the invention, formulated in the form of wettable powders (WP) or as emulsion concentrates (EC), are then sprayed onto the green parts of the plants as aqueous suspension or emulsion at a water application rate equating to 600 to 800 l/ha with addition of 0.2% wetting agent. After the test plants have been left to stand in the greenhouse under optimal growth conditions for about 3 weeks, the action of the preparations is assessed visually in comparison to untreated controls (herbicidal action in percent (%): 100% activity=the plants have died, 0% activity=like control plants).

Digitaria sanguinalis [2] = assay: Post-emergence herbicidal effect against DIGSA; conditions: 1280 g/ha, visual score after about 3 weeks, 100% = plants have died, 0% = like control plants
Experimental: as §1

Echinochloa crus-galli [3] = assay: Post-emergence herbicidal effect against ECHCG; conditions: 1280 g/ha, visual score after about 3 weeks, 100% = plants have died, 0% = like control plants
Experimental: as §1

Setaria viridis [4] = assay: Post-emergence herbicidal effect against SETVI; conditions: application rate 1280 g/ha
Experimental: as §1

Alopecurus myosuroides [5] = assay: Pre-emergence herbicidal effect against ALOMY; conditions: 1280 g/ha, visual score after 3 weeks, 100% = plants have died, 0% = like control plants
Source text: (§2) 1. Pre-emergence herbicidal effect and crop plant compatibility Seeds of monocotyledonous and dicotyledonous weed plants and crop plants are laid out in sandy loam soil in wood-fibre pots and covered with soil. The compounds of the invention, formulated in the form of wettable powders (WP) or as emulsion concentrates (EC), are then applied to the surface of the covering soil as aqueous suspension or emulsion at a water application rate equating to 600 to 800 L/ha with addition of 0.2% wetting agent. After the treatment, the pots are placed in a greenhouse and kept under good growth conditions for the trial plants. The damage to the test plants is scored visually after a test period of 3 weeks by comparison with untreated controls (herbicidal activity in percent (%): 100% activity=the plants have died, 0% activity=like control plants). [table]

Digitaria sanguinalis [6] = assay: Pre-emergence herbicidal effect against DIGSA; conditions: 1280 g/ha, visual score after 3 weeks, 100% = plants have died, 0% = like control plants
Source text: as §2

Echinochloa crus-galli [7] = assay: Pre-emergence herbicidal effect against ECHCG; conditions: 1280 g/ha, visual score after 3 weeks, 100% = plants have died, 0% = like control plants
Source text: as §2

Lolium rigidum = assay: Pre-emergence herbicidal effect against LOLRI; conditions: 1280 g/ha, visual score after 3 weeks, 100% = plants have died, 0% = like control plants
Source text: as §2

Setaria viridis [8] = assay: Pre-emergence herbicidal effect against SETVI; conditions: 1280 g/ha, visual score after 3 weeks, 100% = plants have died, 0% = like control plants
Source text: as §2

CCOC(=O)CSc1nn(-c2ccccc2F)c(-c2ccc(F)nc2)c1Br [II-001, Ethyl {[4-bromo-1-(2-fluorophenyl)-5-(6-fluoropyridin-3-yl)-1H-pyrazol-3-yl]sulfanyl}acetate]
90-100%: Post-emergence action against ALOMY (Alopecurus myosuroides [1]) | Post-emergence action against DIGSA (Digitaria sanguinalis [2]) | Post-emergence action against ECHCG (Echinochloa crus-galli [3]) | efficacy against Setaria viridis (post-emergence) (Setaria viridis [4])

O=C(O)CSc1nn(-c2ccccc2F)c(-c2cncc(F)c2)c1Br [II-005]
90-100%: Pre-emergence action against ALOMY (Alopecurus myosuroides [5]; listed as 11-005) | Pre-emergence action against DIGSA (Digitaria sanguinalis [6]; listed as 11-005) | Pre-emergence action against ECHCG (Echinochloa crus-galli [7]; listed as 11-005) | Pre-emergence action against LOLRI (Lolium rigidum; listed as 11-005) | Pre-emergence action against SETVI (Setaria viridis [8]; listed as 11-005) | Post-emergence action against ALOMY (Alopecurus myosuroides [1]; listed as 11-005) | Post-emergence action against DIGSA (Digitaria sanguinalis [2]; listed as 11-005) | Post-emergence action against ECHCG (Echinochloa crus-galli [3]; listed as 11-005) | efficacy against Setaria viridis (post-emergence) (Setaria viridis [4])

CCOC(=O)CSc1nn(-c2ccccc2F)c(-c2cncc(Cl)c2)c1Br [II-007]
90-100%: Pre-emergence action against ALOMY (Alopecurus myosuroides [5]; listed as 11-007) | Pre-emergence action against DIGSA (Digitaria sanguinalis [6]; listed as 11-007) | Pre-emergence action against ECHCG (Echinochloa crus-galli [7]; listed as 11-007) | Pre-emergence action against LOLRI (Lolium rigidum; listed as 11-007) | Pre-emergence action against SETVI (Setaria viridis [8]; listed as 11-007) | Post-emergence action against ALOMY (Alopecurus myosuroides [1]; listed as 11-007) | Post-emergence action against DIGSA (Digitaria sanguinalis [2]; listed as 11-007) | Post-emergence action against ECHCG (Echinochloa crus-galli [3]; listed as 11-007) | efficacy against Setaria viridis (post-emergence) (Setaria viridis [4])

CCOC(=O)C[S+]([O-])c1nn(-c2ccccc2F)c(-c2cncc(F)c2)c1Br (stereo not drawn) [II-011]
90-100%: Pre-emergence action against ALOMY (Alopecurus myosuroides [5]) | Pre-emergence action against DIGSA (Digitaria sanguinalis [6]) | Pre-emergence action against ECHCG (Echinochloa crus-galli [7]) | Pre-emergence action against LOLRI (Lolium rigidum) | Pre-emergence action against SETVI (Setaria viridis [8])

CCOC(=O)C[S+]([O-])c1nn(-c2ccccc2F)c(-c2cncc(Cl)c2)c1Br (stereo not drawn) [II-013]
90-100%: Pre-emergence action against ALOMY (Alopecurus myosuroides [5]; listed as 11-013) | Pre-emergence action against DIGSA (Digitaria sanguinalis [6]; listed as 11-013) | Pre-emergence action against ECHCG (Echinochloa crus-galli [7]; listed as 11-013) | Pre-emergence action against LOLRI (Lolium rigidum; listed as 11-013) | Pre-emergence action against SETVI (Setaria viridis [8]; listed as 11-013) | Post-emergence action against ALOMY (Alopecurus myosuroides [1]) | Post-emergence action against DIGSA (Digitaria sanguinalis [2]) | Post-emergence action against ECHCG (Echinochloa crus-galli [3]; listed as 11-013) | efficacy against Setaria viridis (post-emergence) (Setaria viridis [4])
